Results as given in PubChem BioAssay AID588497 (NMMLSC, 2011).
Screen size: about 360,000 compounds; about 780 (0.22%) were called active. Inconclusive results, whose numbers are uncertain, are shown with a selection of clear calls. Rule as the data show it: active = inhibition above about 35% (passing the limit was not always enough); inconclusive = no clear call, values can overlap the other calls.

test system: Botulinum neurotoxin type F light chain protease (Clostridium botulinum); experiment: BoNT/F light chain protease inhibitors, primary screen, biochemical, flow cytometry, MLPCN library (AID 588497); settings: Multiplex microsphere protease cleavage assay, at 10 µM, stronger effect = higher value; also: plate controls were buffer without enzyme for full effect and enzyme alone for no effect

Compound	inhibition
COc1cc(-c2nc(CN3CCN(C(=O)c4ccco4)CC3)c(C)o2)ccc1F	inactive: 4.1%
CC1CC(Nc2cccc(O)c2)=CC(=O)O1 (centres undefined)	inconclusive: 2.7%
Cc1ccc(C)c(OCC(=O)Nc2c[nH]c(=O)[nH]c2=O)c1	inactive: -6.6%
CC(=O)c1ccc(NS(=O)(=O)c2cccc3cccnc23)cc1	inactive: -10%
COc1ccccc1N1CCN(C2CC(=O)N(c3ccccc3)C2=O)CC1 (centres undefined)	inconclusive: 0.7%
C=CCn1c(O)c(C(CC)=Nc2ccc(NC(C)=O)cc2)c(=O)[nH]c1=O	inconclusive: 55.5%
CC(C)Oc1cccc(C(=O)Nc2ccc(N3CCN(C)CC3)cc2)c1	inconclusive: -11.4%
COc1cc(OC)nc(NC(=O)CS(=O)(=O)c2ccccc2)n1	inactive: -3.1%
CC(=O)NC(c1ccc(Cl)cc1)c1ccc2cccnc2c1O (centres undefined)	inconclusive: 0.4%
O=C(CCC(=O)c1ccc(F)cc1)OC1CCOC1=O (centres undefined)	inconclusive: -7.1%
CC1=C(C)C(C)=C(C#N)C(=C(C#N)C#N)N1	inconclusive: -4.2%
O=C(O)CC1(CC(=O)NCc2cc(F)cc3c2OCOC3)CCCCC1	inconclusive: 72.3%
O=C(CSc1nncn1-c1ccccc1)Nc1cc(F)ccc1F	inactive: 4%
O=C(O)c1cccc(-c2ccc3c(c2)OCO3)c1	inconclusive: 22.1%
COc1cc(S(=O)(=O)n2ccc(C)n2)ccc1Cl	inconclusive: 10.9%
Cc1cc(NC(=O)CCN2CCN(C)CC2)ccc1Br	inconclusive: -32.2%
CC(C)c1ccc(C(O)c2nc3ccccc3n2C)cc1 (centres undefined)	inconclusive: 27.4%
S=C(NCCc1ccccc1)NCCN1CCOCC1	inconclusive: -12.3%
O=C(c1ccncc1)N1CCN(C(=O)c2cccs2)CC1	inconclusive: 8.4%
CC(C)(C)C(=O)Nc1ccc(C(=O)Nc2cc(NC(=O)c3ccc(NC(=O)C(C)(C)C)cc3)cc(C(=O)O)c2)cc1	inconclusive: 18.1%
CCCS(=O)(=O)NC(=O)C1(C)CCN(C(=O)c2ccc(OC)cc2OC)C1 (centres undefined)	inactive: 0.1%
COc1ccc(C2NC(=O)c3ccccc3N2)c(OC)c1OC (centres undefined)	inactive: 1.9%
C=CCn1c(SCC(=O)c2ccc(NS(=O)(=O)c3ccccc3)cc2)nnc1-c1cccs1	inactive: 0.3%
O=C(NCC1CCCO1)c1cc(-c2ccccc2)nc2ccccc12 (centres undefined)	inconclusive: -42.1%

Some of these compounds in order of length of the SMILES, low to high.
Compound	inhibition
S=C(NCCc1ccccc1)NCCN1CCOCC1	inconclusive: -12.3%
CC1=C(C)C(C)=C(C#N)C(=C(C#N)C#N)N1	inconclusive: -4.2%
O=C(NCC1CCCO1)c1cc(-c2ccccc2)nc2ccccc12 (centres undefined)	inconclusive: -42.1%
CC(C)Oc1cccc(C(=O)Nc2ccc(N3CCN(C)CC3)cc2)c1	inconclusive: -11.4%
CCCS(=O)(=O)NC(=O)C1(C)CCN(C(=O)c2ccc(OC)cc2OC)C1 (centres undefined)	inactive: 0.1%

Following part

Compound	inhibition
Cc1c(OCC(=O)NCc2cccnc2)ccc2c3c(c(=O)oc12)CCCC3	inactive: 8.6%
CCOCC(=O)Nc1ccc2c(c1)N(S(=O)(=O)c1cccs1)CCC2	inconclusive: 1.9%
O=C(CSCc1c(Cl)cccc1Cl)Nc1ccc2c(c1)OCCO2	inactive: 4.2%
Cc1cc(C)cc(NC(=O)C[n+]2ccccc2)c1	inconclusive: -60.3%
COc1ccc(NC(=S)Nc2ccccc2)cc1	inconclusive: -8%
Cc1nc(C)c(C(=O)NNC(=O)Nc2ccc(Cl)cc2)s1	inconclusive: 31.9%
CNc1sc(C(=O)c2ccccc2F)c(N)c1-c1nc2ccccc2s1	inconclusive: -12.2%
CCOc1cc(/C=C2\CN(CC)C/C(=C\c3ccc(O)c(OCC)c3)C2=O)ccc1O	inactive: -3%
CCOC(=O)c1[nH]c2cc(OC)c(OC)cc2c1NC(=O)CCN1CCSCC1	inconclusive: 55.9%
Cn1c(C(=O)NN)cc2cc(Oc3ccccc3)ccc21	inconclusive: -38%
CCC(CC)N=C1NS(=O)(=O)c2cc([N+](=O)[O-])ccc21	inactive: -2.5%
Nc1nc(CCl)nc(Nc2ccc3ccccc3c2)n1	inconclusive: -32.5%
COc1ccccc1CN(C)C(=O)C(c1ccccc1)c1ccccc1	inconclusive: 21.2%
CC(=O)N(Cc1cccc(Br)c1)c1ccc(N2CCOCC2)c(Cl)c1	inconclusive: 0.2%
CN(Cc1ccccc1)C1CCNCC1	inconclusive: 12.3%
COC(=O)c1sc(-c2ccc(C(C)(C)C)cc2)cc1NC(=O)c1ccccc1C(=O)O	inconclusive: 22.4%
O=C1NN(c2ccccc2)C(=O)/C1=C\c1ccc2c(c1)OCO2	inconclusive: -15.9%
CC1=CC2=NC(=O)CC(C)(C(=O)N(CC(=O)NC(C)(C)C)Cc3cccs3)N2C=C1 (centres undefined)	inactive: 2.6%
CCOC(=O)C1Oc2ccccc2C(c2cccc3ccccc23)=C1C(=O)OC (centres undefined)	inactive: -6.4%
COc1ccc(C(=S)N2CCCC2)cc1Br	inconclusive: 14.3%
CC(C)(C)c1ccc(NC(=O)NC2CCCc3ccccc32)cc1 (centres undefined)	inconclusive: 6.2%
O=C1CSC(c2cccc(O)c2)N1Cc1ccccc1 (centres undefined)	inconclusive: -9.1%
CCCc1ccc(NS(=O)(=O)c2c(C)oc(C)c2C(=O)OC)cc1	inconclusive: 16.1%
CCN(CC)Cc1c(O)ccc2occ(C(=O)c3ccccc3)c12	inconclusive: 53.5%

Compound	inhibition
COc1cccc(/C=N/Nc2ncnc3scc(-c4ccccc4)c23)c1O	inactive: -2%
CC1C(=O)C(C)(C)C(=O)OC1c1ccc([N+](=O)[O-])cc1 (centres undefined)	inconclusive: -25.6%
CCN(CC)CCNC(=O)c1cc(Nc2ccc(OC)c(OC)c2)nc2ccccc12	inactive: -51.9%
CC(=O)c1c(C)n(-c2ccc(Br)cc2)c2ccc(O)cc12	inconclusive: -14.2%
COc1cccc(NC(=O)C2CCOC2=O)c1 (centres undefined)	inconclusive: -21.7%
O=C(Cn1ccc([N+](=O)[O-])n1)NCc1ccccc1	inconclusive: 11.2%
COc1cc(/C=N/Nc2ccccc2[N+](=O)[O-])cc(OC)c1O	inactive: -6.2%
CCCCNC(=S)N/N=C/c1ccc(C)s1	inactive: -11.6%
CC(=O)c1ccc(-n2cc(C#N)c(=O)[nH]c2=O)cc1	inconclusive: 15.4%
Cc1ccc(-c2nnn(CC(=O)N(c3ccc(F)cc3)C(C(=O)NC(C)(C)C)c3ccco3)n2)o1 (centres undefined)	inconclusive: -9.5%
Cc1ccc(C)c(OCCC(=O)OCC(=O)Nc2ccc(N3CCOCC3)cc2)c1	inactive: 9.2%
OCCN(CC#CC(O)(c1ccccc1)C1CCCCC1)CCO (centres undefined)	inconclusive: 11.3%
Cc1c(C(=O)NCCSCc2c(F)cccc2Cl)cnn1-c1ccc(Cl)cc1	inconclusive: -39%
CC(C)c1ccc(S(=O)(=O)NCc2ccc3c(c2)OCO3)cc1	inconclusive: -24%
O=C1Nc2c(ccc(Cl)c2Cl)C(=O)C1(F)c1ccccc1 (centres undefined)	inconclusive: 28.8%
C=CCNC(=S)/N=c1/ccccn1Cc1ccccc1	inconclusive: 16%
COc1ccc(C)cc1S(=O)(=O)NCCN1CCOCC1	inactive: 17.7%
NC(=O)C1CCN(c2cc(Cl)ccc2[N+](=O)[O-])CC1	inconclusive: -56.3%
CCCc1c(C)nc(N2CCN(c3ccc(F)cc3)CC2)[nH]c1=O	inconclusive: -5.4%
CC1CCN(S(=O)(=O)c2ccc3c(c2)c(=O)c(C(=O)NCc2ccco2)cn3C)CC1	active: 37.7%
Clc1cccc(Cl)c1CSc1nnc([C@@H]2CCCN2)o1	inconclusive: 39.6%
CCS(=O)(=O)c1ccc(O)c(NC(=O)Nc2cccc3ccccc23)c1	inconclusive: 15.1%
O=C(Nc1ccccc1)c1ccc(S(=O)(=O)NCc2ccco2)cc1	inactive: 4.1%
COC(=O)CCCC(=O)N1CCCC(C(=O)c2ccc(-c3ccccc3)cc2)C1 (centres undefined)	inconclusive: 11.3%

Compound	inhibition
CCOC(=O)C(Cc1ccccc1)(NC(C)=O)C(=O)OCC	inactive: 2.2%
COc1ccccc1OC(C)C(=O)Nc1ccc2c(c1)OCCO2 (centres undefined)	inactive: 3.2%
CCc1ccc(/C=C2\Oc3c(ccc(O)c3CN3CCN(CCO)CC3)C2=O)cc1	inactive: -10%
COc1cc(NC(=O)CN(C)S(=O)(=O)c2ccc3c(c2)CC(C)N3C(C)=O)cc(OC)c1OC (centres undefined)	inactive: 2.9%
C=CCn1c(SCC#N)nnc1-c1ccc2ncccc2c1	inconclusive: 19.5%
Cn1c(=O)c2c(nc3n2CC(CO)O3)n(C)c1=O (centres undefined)	inconclusive: 16.3%
Cc1cc(C)n2nc(C(=O)N/N=C/c3ccco3)nc2n1	inconclusive: 14.1%
COc1ccc(-c2ccnc(SCC(=O)c3ccc(Cl)cc3)n2)cc1	active: 70%
CN(C(=O)CN1C(=O)NC(c2ccccc2)(c2ccccc2)C1=O)C1CCS(=O)(=O)C1 (centres undefined)	inactive: 8.2%
CS(=O)(=O)c1sc(C#N)c2c1C(=O)CC(c1ccccc1)C2 (centres undefined)	inactive: 22.7%
CCOc1ccc(C(=S)N2CCOCC2)cc1OCC	inactive: -0.1%
Cc1ccc(-n2c(C)nc3ccccc3c2=O)c(C)c1	inconclusive: 8.4%
Cn1c(NC(=O)c2ccccc2F)c(-c2cccs2)c(=O)c2ccccc21	inconclusive: -19.8%
COc1ccc(OCC(=O)Nc2ccc3c(c2)n(C)c(=O)n3C)cc1	inconclusive: -5.5%
NC(=O)c1c(/N=C/c2cccs2)sc2c1CCCC2	inactive: -6.8%
O=[N+]([O-])c1cccc(C=NNc2ccccc2)c1	inactive: -8.1%
Cc1ccc(-c2c[n+]3c(n2-c2ccccc2)CCC3)cc1	inconclusive: -20.3%
CC(C)C1C(c2ccccc2)NC(c2ccccc2)CC1(O)c1ccc(F)cc1 (centres undefined)	inconclusive: -23.5%
O=C(O)C1CCCCC1C(=O)Nc1ccccn1 (centres undefined)	inconclusive: -9%
CNc1nc(N)c([N+](=O)[O-])c(NCC2CCCO2)n1 (centres undefined)	inconclusive: -100%
O=C(O)CN(c1ccccc1F)S(=O)(=O)c1ccccc1	inactive: -5.7%
O=C(NC1CCc2ccccc21)C1CCN(S(=O)(=O)c2ccc(-n3cnnn3)cc2)CC1 (centres undefined)	inconclusive: 19.3%
